These are yes or no findings as the source states them, for the method shown. Binding seen in cells or lysates may run through a third protein. Some results given as binding are weak or reduced against the parent protein; the word gives no strength.
Assays:
[1] = molecular target: ZAP-short (ZAP-S), endogenous in HEK293T ZAP-L knockout cells (human (endogenous in HEK293T)), Q7Z2W4; experiment: co-IP; conditions: remark: other sources report otherwise
[2] = molecular target: TRIM25 (E3 ubiquitin ligase), endogenous (human (endogenous in HEK293T and HeLa)) (UniProt Q14258); experiment: co-IP

Amino acid sequences for entries named in this document (tags omitted).
UniProt Q14258, whole entry: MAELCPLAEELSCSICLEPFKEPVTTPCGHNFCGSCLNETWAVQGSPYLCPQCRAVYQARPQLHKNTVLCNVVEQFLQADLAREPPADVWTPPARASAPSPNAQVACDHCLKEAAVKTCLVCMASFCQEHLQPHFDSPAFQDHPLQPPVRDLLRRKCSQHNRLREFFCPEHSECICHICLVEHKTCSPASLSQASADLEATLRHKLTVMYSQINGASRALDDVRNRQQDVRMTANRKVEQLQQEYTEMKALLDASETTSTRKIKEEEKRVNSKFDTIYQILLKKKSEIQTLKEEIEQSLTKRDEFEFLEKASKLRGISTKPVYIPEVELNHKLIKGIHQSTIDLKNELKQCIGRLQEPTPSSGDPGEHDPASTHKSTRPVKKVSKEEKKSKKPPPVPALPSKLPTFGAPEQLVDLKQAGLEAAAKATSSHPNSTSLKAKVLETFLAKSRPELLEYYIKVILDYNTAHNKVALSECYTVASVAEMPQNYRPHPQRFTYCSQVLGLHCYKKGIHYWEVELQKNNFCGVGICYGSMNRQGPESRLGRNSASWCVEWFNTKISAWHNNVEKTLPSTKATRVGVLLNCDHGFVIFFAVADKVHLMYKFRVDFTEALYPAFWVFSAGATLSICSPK

Row | Binder | binding [1] | binding [2]
1 | KHNYN (endoribonuclease), endogenous, O15037 1-678 (protein) MPTWGARPASPDRFAVSAEAENKVREQQPHVERIFSVGVSVLPKDCPDNPHIWLQLEGPKENASRAKEYLKGLCSPELQDEIHYPPKLHCIFLGAQGFFLDCLAWSTSAHLVPRAPGSLMISGLTEAFVMAQSRVEELAERLSWDFTPGPSSGASQCTGVLRDFSALLQSPGDAHREALLQLPLAVQEELLSLVQEASSGQGPGALASWEGRSSALLGAQCQGVRAPPSDGRESLDTGSMGPGDCRGARGDTYAVEKEGGKQGGPREMDWGWKELPGEEAWEREVALRPQSVGGGARESAPLKGKALGKEEIALGGGGFCVHREPPGAHGSCHRAAQSRGASLLQRLHNGNASPPRVPSPPPAPEPPWHCGDRGDCGDRGDVGDRGDKQQGMARGRGPQWKRGARGGNLVTGTQRFKEALQDPFTLCLANVPGQPDLRHIVIDGSNVAMVHGLQHYFSSRGIAIAVQYFWDRGHRDITVFVPQWRFSKDAKVRESHFLQKLYSLSLLSLTPSRVMDGKRISSYDDRFMVKLAEETDGIIVSNDQFRDLAEESEKWMAIIRERLLPFTFVGNLFMVPDDPLGRNGPTLDEFLKKPARTQGSSKAQHPSRGFAEHGKQQQGREEEKGSGGIRKTRETERLRRQLLEVFWGQDHKVDFILQREPYCRDINQLSEALLSLNF | binds | –
2 | TUT7 (terminal uridylyltransferase 7), endogenous (protein, UniProt Q5VYS8 1-1495) MGDTAKPYFVKRTKDRGTMDDDDFRRGHPQQDYLIIDDHAKGHGSKMEKGLQKKKITPGNYGNTPRKGPCAVSSNPYAFKNPIYSQPAWMNDSHKDQSKRWLSDEHTGNSDNWREFKPGPRIPVINRQRKDSFQENEDGYRWQDTRGCRTVRRLFHKDLTSLETTSEMEAGSPENKKQRSRPRKPRKTRNEENEQDGDLEGPVIDESVLSTKELLGLQQAEERLKRDCIDRLKRRPRNYPTAKYTCRLCDVLIESIAFAHKHIKEKRHKKNIKEKQEEELLTTLPPPTPSQINAVGIAIDKVVQEFGLHNENLEQRLEIKRIMENVFQHKLPDCSLRLYGSSCSRLGFKNSDVNIDIQFPAIMSQPDVLLLVQECLKNSDSFIDVDADFHARVPVVVCREKQSGLLCKVSAGNENACLTTKHLTALGKLEPKLVPLVIAFRYWAKLCSIDRPEEGGLPPYVFALMAIFFLQQRKEPLLPVYLGSWIEGFSLSKLGNFNLQDIEKDVVIWEHTDSAAGDTGITKEEAPRETPIKRGQVSLILDVKHQPSVPVGQLWVELLRFYALEFNLADLVISIRVKELVSRELKDWPKKRIAIEDPYSVKRNVARTLNSQPVFEYILHCLRTTYKYFALPHKITKSSLLKPLNAITCISEHSKEVINHHPDVQTKDDKLKNSVLAQGPGATSSAANTCKVQPLTLKETAESFGSPPKEEMGNEHISVHPENSDCIQADVNSDDYKGDKVYHPETGRKNEKEKVGRKGKHLLTVDQKRGEHVVCGSTRNNESESTLDLEGFQNPTAKECEGLATLDNKADLDGESTEGTEELEDSLNHFTHSVQGQTSEMIPSDEEEEDDEEEEEEEEPRLTINQREDEDGMANEDELDNTYTGSGDEDALSEEDDELGEAAKYEDVKECGKHVERALLVELNKISLKEENVCEEKNSPVDQSDFFYEFSKLIFTKGKSPTVVCSLCKREGHLKKDCPEDFKRIQLEPLPPLTPKFLNILDQVCIQCYKDFSPTIIEDQAREHIRQNLESFIRQDFPGTKLSLFGSSKNGFGFKQSDLDVCMTINGLETAEGLDCVRTIEELARVLRKHSGLRNILPITTAKVPIVKFFHLRSGLEVDISLYNTLALHNTRLLSAYSAIDPRVKYLCYTMKVFTKMCDIGDASRGSLSSYAYTLMVLYFLQQRNPPVIPVLQEIYKGEKKPEIFVDGWNIYFFDQIDELPTYWSECGKNTESVGQLWLGLLRFYTEEFDFKEHVISIRRKSLLTTFKKQWTSKYIVIEDPFDLNHNLGAGLSRKMTNFIMKAFINGRRVFGIPVKGFPKDYPSKMEYFFDPDVLTEGELAPNDRCCRICGKIGHFMKDCPMRRKVRRRRDQEDALNQRYPENKEKRSKEDKEIHNKYTEREVSTKEDKPIQCTPQKAKPMRAAADLGREKILRPPVEKWKRQDDKDLREKRCFICGREGHIKKECPQFKGSSGSLSSKYMTQGKASAKRTQQES | – | binds
3 | DIS3L2 (3'-5' exoribonuclease), endogenous (protein, UniProt Q8IYB7 1-885) MSHPDYRMNLRPLGTPRGVSAVAGPHDIGASPGDKKSKNRSTRGKKKSIFETYMSKEDVSEGLKRGTLIQGVLRINPKKFHEAFIPSPDGDRDIFIDGVVARNRALNGDLVVVKLLPEEHWKVVKPESNDKETEAAYESDIPEELCGHHLPQQSLKSYNDSPDVIVEAQFDGSDSEDGHGITQNVLVDGVKKLSVCVSEKGREDGDAPVTKDETTCISQDTRALSEKSLQRSAKVVYILEKKHSRAATGFLKLLADKNSELFRKYALFSPSDHRVPRIYVPLKDCPQDFVARPKDYANTLFICRIVDWKEDCNFALGQLAKSLGQAGEIEPETEGILTEYGVDFSDFSSEVLECLPQGLPWTIPPEEFSKRRDLRKDCIFTIDPSTARDLDDALSCKPLADGNFKVGVHIADVSYFVPEGSDLDKVAAERATSVYLVQKVVPMLPRLLCEELCSLNPMSDKLTFSVIWTLTPEGKILDEWFGRTIIRSCTKLSYEHAQSMIESPTEKIPAKELPPISPEHSSEEVHQAVLNLHGIAKQLRQQRFVDGALRLDQLKLAFTLDHETGLPQGCHIYEYRESNKLVEEFMLLANMAVAHKIHRAFPEQALLRRHPPPQTRMLSDLVEFCDQMGLPVDFSSAGALNKSLTQTFGDDKYSLARKEVLTNMCSRPMQMALYFCSGLLQDPAQFRHYALNVPLYTHFTSPIRRFADVLVHRLLAAALGYRERLDMAPDTLQKQADHCNDRRMASKRVQELSTSLFFAVLVKESGPLESEAMVMGILKQAFDVLVLRYGVQKRIYCNALALRSHHFQKVGKKPELTLVWEPEDMEQEPAQQVITIFSLVEVVLQAESTALKYSAILKRPGTQGHLGPEKEEEESDGEPEDSSTS | – | binds
